Results are given in words; binding and its absence hold for the method and conditions named. In cells and extracts the contact can be indirect. Some results given as binding are weak or reduced against the parent protein; the word gives no strength. Tags and fused reporters may be left off the sequences shown.
Target: T1, Amotl1-HA (Angiomotin-like 1, HA-tagged) (UniProt Q9D4H4)
T1 sequence: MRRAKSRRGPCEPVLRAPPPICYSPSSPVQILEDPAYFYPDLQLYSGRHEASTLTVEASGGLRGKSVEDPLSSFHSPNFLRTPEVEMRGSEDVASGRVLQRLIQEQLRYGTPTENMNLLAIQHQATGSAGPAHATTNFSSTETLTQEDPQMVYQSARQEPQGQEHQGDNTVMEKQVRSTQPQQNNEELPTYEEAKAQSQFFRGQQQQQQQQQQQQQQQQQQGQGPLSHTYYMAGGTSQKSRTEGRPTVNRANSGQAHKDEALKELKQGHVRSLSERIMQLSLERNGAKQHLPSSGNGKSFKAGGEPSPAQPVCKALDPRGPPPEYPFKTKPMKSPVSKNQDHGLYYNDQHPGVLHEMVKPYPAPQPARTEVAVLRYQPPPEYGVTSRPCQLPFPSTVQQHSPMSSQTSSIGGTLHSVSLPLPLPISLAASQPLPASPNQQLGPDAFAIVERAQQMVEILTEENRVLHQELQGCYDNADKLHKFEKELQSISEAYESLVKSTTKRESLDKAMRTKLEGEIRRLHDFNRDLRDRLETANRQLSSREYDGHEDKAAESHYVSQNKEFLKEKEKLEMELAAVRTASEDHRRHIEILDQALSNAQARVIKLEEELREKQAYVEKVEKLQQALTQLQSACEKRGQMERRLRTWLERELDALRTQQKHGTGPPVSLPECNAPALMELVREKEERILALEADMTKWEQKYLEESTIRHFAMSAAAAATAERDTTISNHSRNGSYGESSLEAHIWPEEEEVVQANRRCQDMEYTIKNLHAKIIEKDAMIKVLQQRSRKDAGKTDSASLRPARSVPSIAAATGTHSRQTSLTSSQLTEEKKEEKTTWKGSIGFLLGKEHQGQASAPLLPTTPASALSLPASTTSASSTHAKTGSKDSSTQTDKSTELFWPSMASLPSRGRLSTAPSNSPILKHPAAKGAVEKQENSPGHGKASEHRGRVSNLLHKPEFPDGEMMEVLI
Test: co-IP; HEK293 cells transfected with Amotl1-HA and Flag-Fat4-ΔECD, cultured 48 h; lysis buffer 150 mM NaCl, 5 mM EDTA, 10 mM Tris pH 7.5, 10% glycerol, 1% NP-40; IP with anti-HA (Roche 3F10) on protein G magnetic beads; isotype IgG as negative control; immunoblot

Protein sequences, listed by entry. Tags and fused reporters are not part of them.
UniProt P46937: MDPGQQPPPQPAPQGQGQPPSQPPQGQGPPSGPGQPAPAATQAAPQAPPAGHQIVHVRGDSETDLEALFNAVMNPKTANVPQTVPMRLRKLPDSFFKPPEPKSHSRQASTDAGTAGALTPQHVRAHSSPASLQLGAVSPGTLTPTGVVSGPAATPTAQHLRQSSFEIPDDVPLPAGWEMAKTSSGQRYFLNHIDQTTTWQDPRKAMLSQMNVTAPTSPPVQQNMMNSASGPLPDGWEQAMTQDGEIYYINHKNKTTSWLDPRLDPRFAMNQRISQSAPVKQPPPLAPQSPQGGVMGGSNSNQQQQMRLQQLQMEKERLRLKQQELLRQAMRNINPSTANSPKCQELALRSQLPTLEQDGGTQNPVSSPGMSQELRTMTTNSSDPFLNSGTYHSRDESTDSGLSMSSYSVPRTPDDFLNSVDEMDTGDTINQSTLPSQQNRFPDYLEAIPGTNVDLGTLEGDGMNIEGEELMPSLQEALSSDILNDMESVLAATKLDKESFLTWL

Substance: Yap1 (from UniProt P46937 1-504)
- binding: binds

From PMC5333361
